This is one part of the list.

Chains of the proteins cited; added tags and fusions are not shown. Lines headed by an entry give the natural chain unless they say otherwise; changes in a name come on top.
UniProt Q8WWL2: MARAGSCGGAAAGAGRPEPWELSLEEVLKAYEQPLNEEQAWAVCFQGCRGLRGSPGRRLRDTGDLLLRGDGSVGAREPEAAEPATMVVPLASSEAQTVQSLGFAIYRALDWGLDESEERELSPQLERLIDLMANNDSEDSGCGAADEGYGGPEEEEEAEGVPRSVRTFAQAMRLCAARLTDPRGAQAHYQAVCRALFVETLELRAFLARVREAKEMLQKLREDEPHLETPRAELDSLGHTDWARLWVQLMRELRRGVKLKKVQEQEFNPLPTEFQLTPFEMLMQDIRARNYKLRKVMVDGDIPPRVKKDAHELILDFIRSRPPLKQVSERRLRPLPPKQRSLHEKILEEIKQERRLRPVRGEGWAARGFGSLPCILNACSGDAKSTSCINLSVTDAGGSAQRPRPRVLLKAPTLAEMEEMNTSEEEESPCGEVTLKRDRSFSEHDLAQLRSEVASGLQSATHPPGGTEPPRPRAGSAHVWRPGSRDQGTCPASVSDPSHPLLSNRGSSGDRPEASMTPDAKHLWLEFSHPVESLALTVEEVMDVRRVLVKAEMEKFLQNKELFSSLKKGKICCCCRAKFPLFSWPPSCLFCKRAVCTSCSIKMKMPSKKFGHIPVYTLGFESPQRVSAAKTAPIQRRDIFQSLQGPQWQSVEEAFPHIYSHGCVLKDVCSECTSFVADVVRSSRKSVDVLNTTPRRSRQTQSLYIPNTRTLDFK
UniProt Q15532, whole entry, looked up: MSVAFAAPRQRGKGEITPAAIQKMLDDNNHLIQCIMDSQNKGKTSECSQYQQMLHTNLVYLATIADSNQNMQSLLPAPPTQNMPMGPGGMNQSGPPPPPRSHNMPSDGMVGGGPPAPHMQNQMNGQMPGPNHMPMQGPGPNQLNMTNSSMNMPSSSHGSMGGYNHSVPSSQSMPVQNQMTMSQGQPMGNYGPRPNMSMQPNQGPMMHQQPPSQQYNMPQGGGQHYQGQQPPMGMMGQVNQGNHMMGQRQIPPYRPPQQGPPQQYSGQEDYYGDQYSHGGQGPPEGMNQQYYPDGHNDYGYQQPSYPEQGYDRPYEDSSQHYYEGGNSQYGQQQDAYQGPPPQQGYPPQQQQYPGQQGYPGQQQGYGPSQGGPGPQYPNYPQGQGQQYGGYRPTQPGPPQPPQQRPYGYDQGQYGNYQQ
UniProt Q9BWG4: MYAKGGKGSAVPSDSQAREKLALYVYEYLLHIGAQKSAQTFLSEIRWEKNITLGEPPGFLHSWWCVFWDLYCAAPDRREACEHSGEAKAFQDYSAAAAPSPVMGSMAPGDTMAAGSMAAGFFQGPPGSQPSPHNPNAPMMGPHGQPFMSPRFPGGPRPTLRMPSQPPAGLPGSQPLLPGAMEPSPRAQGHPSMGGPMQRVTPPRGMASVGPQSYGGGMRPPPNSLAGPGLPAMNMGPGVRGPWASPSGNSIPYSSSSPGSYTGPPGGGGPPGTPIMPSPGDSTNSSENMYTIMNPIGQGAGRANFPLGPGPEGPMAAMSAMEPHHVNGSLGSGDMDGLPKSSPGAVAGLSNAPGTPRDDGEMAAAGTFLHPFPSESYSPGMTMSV
UniProt Q9BYN0: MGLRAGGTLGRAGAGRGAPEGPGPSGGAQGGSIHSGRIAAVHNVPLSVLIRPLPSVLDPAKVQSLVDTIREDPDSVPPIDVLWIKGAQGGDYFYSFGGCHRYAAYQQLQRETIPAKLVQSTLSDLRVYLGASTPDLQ
UniProt Q96EA4: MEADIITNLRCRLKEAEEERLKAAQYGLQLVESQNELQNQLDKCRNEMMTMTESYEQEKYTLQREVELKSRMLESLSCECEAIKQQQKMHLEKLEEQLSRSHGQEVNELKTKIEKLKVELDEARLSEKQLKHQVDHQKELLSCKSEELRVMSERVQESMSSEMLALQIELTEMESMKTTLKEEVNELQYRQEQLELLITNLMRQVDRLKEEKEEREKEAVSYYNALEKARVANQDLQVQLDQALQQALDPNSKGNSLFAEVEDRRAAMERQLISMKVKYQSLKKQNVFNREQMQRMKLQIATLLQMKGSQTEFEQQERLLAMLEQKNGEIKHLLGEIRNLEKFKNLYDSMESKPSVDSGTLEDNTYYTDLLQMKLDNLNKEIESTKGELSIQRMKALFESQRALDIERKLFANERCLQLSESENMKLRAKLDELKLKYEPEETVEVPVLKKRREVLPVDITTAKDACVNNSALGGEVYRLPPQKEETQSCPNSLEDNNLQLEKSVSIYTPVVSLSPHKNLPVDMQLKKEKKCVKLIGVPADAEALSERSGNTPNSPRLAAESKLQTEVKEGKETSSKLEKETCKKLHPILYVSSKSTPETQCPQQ
UniProt Q7Z6B7: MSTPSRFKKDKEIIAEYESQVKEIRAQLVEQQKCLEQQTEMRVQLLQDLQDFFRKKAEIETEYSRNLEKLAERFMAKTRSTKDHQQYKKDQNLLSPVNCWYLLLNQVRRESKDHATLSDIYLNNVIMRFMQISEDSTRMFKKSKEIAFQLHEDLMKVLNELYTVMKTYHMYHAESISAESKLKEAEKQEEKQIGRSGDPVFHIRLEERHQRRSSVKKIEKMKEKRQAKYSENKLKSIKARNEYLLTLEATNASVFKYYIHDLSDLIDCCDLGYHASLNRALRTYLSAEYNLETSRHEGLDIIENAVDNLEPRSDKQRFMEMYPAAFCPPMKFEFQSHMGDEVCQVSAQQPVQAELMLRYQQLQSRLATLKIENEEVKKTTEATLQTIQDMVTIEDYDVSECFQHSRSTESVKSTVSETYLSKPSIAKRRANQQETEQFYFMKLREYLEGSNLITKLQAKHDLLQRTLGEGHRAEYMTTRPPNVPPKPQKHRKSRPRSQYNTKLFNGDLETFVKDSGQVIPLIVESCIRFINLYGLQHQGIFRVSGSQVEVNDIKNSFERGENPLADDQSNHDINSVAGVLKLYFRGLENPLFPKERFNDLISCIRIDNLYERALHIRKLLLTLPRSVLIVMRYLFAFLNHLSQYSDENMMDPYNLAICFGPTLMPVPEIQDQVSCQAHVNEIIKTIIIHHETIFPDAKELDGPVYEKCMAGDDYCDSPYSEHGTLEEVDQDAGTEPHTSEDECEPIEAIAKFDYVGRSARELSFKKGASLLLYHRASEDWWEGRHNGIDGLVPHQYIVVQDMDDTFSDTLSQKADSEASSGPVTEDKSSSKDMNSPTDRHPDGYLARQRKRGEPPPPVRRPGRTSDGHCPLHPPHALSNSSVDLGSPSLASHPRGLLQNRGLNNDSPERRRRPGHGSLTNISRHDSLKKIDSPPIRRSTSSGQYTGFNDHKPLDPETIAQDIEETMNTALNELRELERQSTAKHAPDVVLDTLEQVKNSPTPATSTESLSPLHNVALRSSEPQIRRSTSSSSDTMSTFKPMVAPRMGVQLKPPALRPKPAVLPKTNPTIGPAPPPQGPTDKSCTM
UniProt P52630: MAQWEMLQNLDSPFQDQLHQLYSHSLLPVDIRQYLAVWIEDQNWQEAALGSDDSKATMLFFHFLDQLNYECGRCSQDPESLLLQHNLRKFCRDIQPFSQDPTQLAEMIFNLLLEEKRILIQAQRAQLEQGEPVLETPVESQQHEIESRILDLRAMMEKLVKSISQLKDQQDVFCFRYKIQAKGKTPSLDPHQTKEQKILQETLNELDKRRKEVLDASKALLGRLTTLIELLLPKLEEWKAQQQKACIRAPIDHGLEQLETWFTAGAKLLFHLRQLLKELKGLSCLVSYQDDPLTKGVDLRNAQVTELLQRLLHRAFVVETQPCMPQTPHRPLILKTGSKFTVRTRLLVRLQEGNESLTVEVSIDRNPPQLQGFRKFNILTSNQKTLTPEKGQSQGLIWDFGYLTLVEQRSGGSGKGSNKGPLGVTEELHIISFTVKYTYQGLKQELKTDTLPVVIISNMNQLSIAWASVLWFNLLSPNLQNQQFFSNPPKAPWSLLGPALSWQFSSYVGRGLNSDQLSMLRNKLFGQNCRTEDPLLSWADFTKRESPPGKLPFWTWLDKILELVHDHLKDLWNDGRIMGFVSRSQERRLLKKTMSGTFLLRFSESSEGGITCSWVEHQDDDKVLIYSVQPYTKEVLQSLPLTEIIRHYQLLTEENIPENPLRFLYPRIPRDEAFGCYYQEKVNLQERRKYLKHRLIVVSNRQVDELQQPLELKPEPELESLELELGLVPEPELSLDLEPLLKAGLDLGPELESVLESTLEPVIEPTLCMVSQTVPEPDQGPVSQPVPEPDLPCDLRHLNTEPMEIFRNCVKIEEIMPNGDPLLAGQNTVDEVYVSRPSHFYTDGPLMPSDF
UniProt Q6ZUB1: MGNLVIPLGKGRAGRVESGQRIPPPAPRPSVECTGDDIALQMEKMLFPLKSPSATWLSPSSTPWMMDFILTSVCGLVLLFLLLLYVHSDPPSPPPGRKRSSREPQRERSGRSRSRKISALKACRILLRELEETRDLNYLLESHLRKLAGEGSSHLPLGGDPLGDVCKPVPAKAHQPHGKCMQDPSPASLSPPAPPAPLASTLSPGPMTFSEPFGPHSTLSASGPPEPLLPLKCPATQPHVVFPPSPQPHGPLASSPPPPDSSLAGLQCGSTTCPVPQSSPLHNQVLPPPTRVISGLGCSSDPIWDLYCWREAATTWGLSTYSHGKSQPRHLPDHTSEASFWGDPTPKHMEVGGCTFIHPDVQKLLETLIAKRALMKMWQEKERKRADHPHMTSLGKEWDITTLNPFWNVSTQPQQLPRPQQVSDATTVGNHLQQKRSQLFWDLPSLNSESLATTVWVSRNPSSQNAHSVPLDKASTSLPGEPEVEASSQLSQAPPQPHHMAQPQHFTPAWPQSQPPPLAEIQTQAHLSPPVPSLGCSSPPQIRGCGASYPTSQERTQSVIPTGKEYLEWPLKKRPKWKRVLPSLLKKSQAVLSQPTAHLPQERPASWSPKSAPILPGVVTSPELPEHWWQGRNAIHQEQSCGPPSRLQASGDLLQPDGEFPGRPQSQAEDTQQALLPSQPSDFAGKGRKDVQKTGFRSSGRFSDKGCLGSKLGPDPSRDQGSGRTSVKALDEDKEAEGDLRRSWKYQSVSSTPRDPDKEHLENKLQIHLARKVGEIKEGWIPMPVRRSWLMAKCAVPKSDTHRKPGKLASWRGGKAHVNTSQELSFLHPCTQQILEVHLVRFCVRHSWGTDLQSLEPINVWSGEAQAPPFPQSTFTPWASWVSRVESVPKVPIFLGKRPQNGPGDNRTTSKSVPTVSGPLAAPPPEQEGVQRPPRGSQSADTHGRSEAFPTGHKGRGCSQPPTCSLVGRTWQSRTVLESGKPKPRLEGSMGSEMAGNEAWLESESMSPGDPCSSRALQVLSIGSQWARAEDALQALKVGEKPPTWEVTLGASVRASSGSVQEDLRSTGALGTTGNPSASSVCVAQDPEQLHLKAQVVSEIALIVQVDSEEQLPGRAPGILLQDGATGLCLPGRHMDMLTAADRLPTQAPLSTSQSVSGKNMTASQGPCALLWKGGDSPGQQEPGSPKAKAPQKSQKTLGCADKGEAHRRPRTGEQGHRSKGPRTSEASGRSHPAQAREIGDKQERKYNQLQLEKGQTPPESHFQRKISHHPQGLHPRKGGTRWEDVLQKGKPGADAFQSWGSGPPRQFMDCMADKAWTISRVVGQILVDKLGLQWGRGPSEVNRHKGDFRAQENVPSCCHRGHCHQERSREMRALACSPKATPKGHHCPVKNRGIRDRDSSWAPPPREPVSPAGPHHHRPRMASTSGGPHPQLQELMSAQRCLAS
UniProt Q16384, whole entry, looked up: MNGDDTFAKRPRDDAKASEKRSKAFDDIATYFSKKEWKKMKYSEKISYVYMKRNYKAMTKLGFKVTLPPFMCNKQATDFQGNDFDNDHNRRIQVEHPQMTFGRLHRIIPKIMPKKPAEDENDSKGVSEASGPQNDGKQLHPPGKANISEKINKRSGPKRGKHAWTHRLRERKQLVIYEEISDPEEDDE
UniProt Q9P246, whole entry, looked up: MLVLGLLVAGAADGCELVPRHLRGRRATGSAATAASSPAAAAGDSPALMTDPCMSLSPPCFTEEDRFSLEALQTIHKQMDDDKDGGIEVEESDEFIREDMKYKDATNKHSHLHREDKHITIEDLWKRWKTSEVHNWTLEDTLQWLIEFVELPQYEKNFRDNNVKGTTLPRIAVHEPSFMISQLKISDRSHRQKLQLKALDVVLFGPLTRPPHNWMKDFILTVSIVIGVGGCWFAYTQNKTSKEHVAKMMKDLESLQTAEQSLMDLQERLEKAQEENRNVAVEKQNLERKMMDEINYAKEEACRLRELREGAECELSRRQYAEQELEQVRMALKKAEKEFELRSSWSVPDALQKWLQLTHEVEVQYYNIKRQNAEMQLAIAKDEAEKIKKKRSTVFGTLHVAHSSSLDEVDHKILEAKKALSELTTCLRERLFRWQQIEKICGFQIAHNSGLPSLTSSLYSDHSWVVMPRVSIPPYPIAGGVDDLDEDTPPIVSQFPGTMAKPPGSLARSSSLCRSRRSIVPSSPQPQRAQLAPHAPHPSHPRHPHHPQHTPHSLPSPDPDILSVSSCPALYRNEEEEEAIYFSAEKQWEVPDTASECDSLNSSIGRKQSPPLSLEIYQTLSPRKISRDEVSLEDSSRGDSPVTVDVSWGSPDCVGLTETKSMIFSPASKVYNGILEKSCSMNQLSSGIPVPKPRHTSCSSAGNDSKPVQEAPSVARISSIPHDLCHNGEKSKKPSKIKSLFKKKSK

Among the data in the supplement of paper PMC10849652 are log2 fold change values, retold here.

Compound in one test: C1=CC=C(C=C1)C2=NC(=C(N2)C3=CC=NC=C3)C4=CC(=C(C=C4)Cl)O
Put plainly: log2 fold change, soluble protein after heating vs DMSO (PISA); higher = thermal stabilisation; K562 cells, 10 uM, 30 min; active = over 0.2 and 3.5 SD of the protein, either way, in both replicates (recomputed). In outline: (§1)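 Soluble protein was quantified by TMTpro 16plex LC-MS/MS after channel sums were equalised. It was obtained as the supernatant after 21,000xg for 90 min from pooled aliquots of K562 cells (2×10^6 cells/mL, 10 μM compound, 30 min) heated for 3 min across 48°C-58°C and extracted in PBS with 0.5% NP-40 at 4°C. Thermal stability values are relative to control samples and come from duplicates. They are given as log2 fold changes.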
Turning to SPIRE2 (UniProt Q8WWL2), the log2 fold change is inactive: -0.611.
On the same count and under the same terms, the value for SRCIN1 (UniProt Q9C0H9) was inactive: -0.195; that for SS18 (UniProt Q15532) was inactive: 0.249.
Still for that read-out and setting: the value for SRD5A3 (UniProt Q9H8P0) was inactive: 0.286.
Still for that read-out and setting: the value for STAR (UniProt P49675) was inactive: -0.134; that for SSBP4 (UniProt Q9BWG4) was inactive: -0.052.
Consider SSBP2 (UniProt P81877), for which the log2 fold change is inactive: -0.024.
Consider STAB1 (UniProt Q9NY15), for which the log2 fold change is inactive: -0.072.
For SRXN1 (UniProt Q9BYN0), the log2 fold change was inactive: 0.004.
SPDL1 (UniProt Q96EA4): the log2 fold change was inactive: -0.228.
Same read-out and setting: the value for STC2 (UniProt O76061) was inactive: -0.214; that for SPRED1 (UniProt Q7Z699) was inactive: -0.103; that for SRGAP1 (UniProt Q7Z6B7) was inactive: -0.049.
Still for that read-out and setting: the value for STAT2 (UniProt P52630) was inactive: -0.04.
On the same count and under the same terms, the value for SRCAP (UniProt Q6ZRS2) was inactive: -0.191; that for SPATA33 isoform 2 (UniProt Q96N06) was inactive: -0.059.
On to STK19 (UniProt P49842), for which the log2 fold change was inactive: -0.174.
For SPINT1 (UniProt O43278), the log2 fold change was inactive: -0.152.
On to SPATA31E1 (UniProt Q6ZUB1), for which the log2 fold change was inactive: 0.

Compound in a further test: C1=CC=C2C(=C1)C3=NNC4=CC=CC(=C43)C2=O
The test is described as above. In outline: as §1
For the target SSX1 (UniProt Q16384), the log2 fold change was inactive: 0.181.
Same read-out and setting: the value for SRCIN1 (UniProt Q9C0H9) was inactive: 0.029; that for SS18 (UniProt Q15532) was inactive: 0.038; that for SRD5A3 (UniProt Q9H8P0) was inactive: -0.18.
Turning to SSBP4 (UniProt Q9BWG4), the log2 fold change was inactive: -0.099.
SRXN1 (UniProt Q9BYN0): the log2 fold change was inactive: -0.017.
Same read-out and setting: the figure for SPATS2L isoform 3 (UniProt Q9NUQ6) is inactive: -0.127; for SPRED1 (UniProt Q7Z699) it is inactive: 0.019.
The same measure, in the same setting: the figure for STAT2 (UniProt P52630) is inactive: -0.013; for ST8SIA6 (UniProt P61647) it is inactive: -0.007.
Same read-out and setting: the value for SPATA33 isoform 2 (UniProt Q96N06) was inactive: -0.015; that for STK19 (UniProt P49842) was inactive: -0.09.
For STIM2 isoform 2 (UniProt Q9P246), the log2 fold change was inactive: 0.003.
The same measure, in the same setting: the value for SPATA31E1 (UniProt Q6ZUB1) was inactive: -0.179; that for SPRED2 (UniProt Q7Z698) was inactive: 0.

Compound in a further test: C1CCN(C1)C(=O)NC2=CC=CC(=C2)NC3=NC=C(C(=N3)NCCC4=CN=CN4)Br
The test is described as above. In outline:
as §1
For the target SPIRE2 (UniProt Q8WWL2), the log2 fold change was inactive: 0.235.
Same read-out and setting: the figure for SS18 (UniProt Q15532) is inactive: -0.104; for SSBP4 (UniProt Q9BWG4) it is inactive: 0.022.
Still for that read-out and setting: the value for SRXN1 (UniProt Q9BYN0) was inactive: -0.021; that for SPDL1 (UniProt Q96EA4) was inactive: -0.032.
Same read-out and setting: the figure for SRGAP1 (UniProt Q7Z6B7) is inactive: -0.099.
Turning to STAT2 (UniProt P52630), the log2 fold change was inactive: -0.143.
Consider SRCAP (UniProt Q6ZRS2), for which the log2 fold change is inactive: 0.059.
The same measure, in the same setting: the value for SPATA33 isoform 2 (UniProt Q96N06) was inactive: -0.071.
Consider STIM2 isoform 2 (UniProt Q9P246), for which the log2 fold change was inactive: -0.175.

Compound in a further test: C1CN(CCC1(CC2=CC=C(C=C2)Cl)N)C3=NC=NC4=C3C=CN4
Described as above. In outline:
as §1
Take SPIRE2 (UniProt Q8WWL2): the log2 fold change is inactive: 0.258.
Same read-out and setting: the value for SS18 (UniProt Q15532) was inactive: -0.129; that for SSBP4 (UniProt Q9BWG4) was inactive: -0.024; that for SRXN1 (UniProt Q9BYN0) was inactive: 0.048.
Same read-out and setting: the value for SPDL1 (UniProt Q96EA4) was inactive: -0.134.
Take SRGAP1 (UniProt Q7Z6B7): the log2 fold change is inactive: 0.03.
In the case of STAT2 (UniProt P52630), the log2 fold change was inactive: 0.075.
As for SRCAP (UniProt Q6ZRS2), the log2 fold change was inactive: -0.254.
Still for that read-out and setting: the value for SPATA33 isoform 2 (UniProt Q96N06) was inactive: -0.1.
STIM2 isoform 2 (UniProt Q9P246): the log2 fold change was inactive: -0.058.
